Here are results for one compound from publication PMC2758934 (Nature structural & molecular biology, 2009).

Structures are written as SMILES.

In general, IC50 refers to the concentration that gives 50% inhibition. Read a high IC50 as a need for much substance.

In this assay the target is LeuT (Aquifex aeolicus, UniProt O67854). In words: biochemical.

With `CN[C@H]1CC[C@@H](c2ccc(Cl)c(Cl)c2)c2ccccc21` [sertraline], the IC50 amounted to 19.7 ± 9.2 µM.
